Measurements from publication PMC2666795, “Bacterial Genome Partitioning: N-Terminal Domain of IncC Protein Encoded by Broad-Host-Range Plasmid RK2 Modulates Oligomerisation and DNA Binding” (Journal of Molecular Biology, 2009).
Results are given in words; binding and its absence hold for the method and conditions named. Some results given as binding are weak or reduced against the parent protein; the word gives no strength. Blank lines part the entries; values can stand above or below the binder they belong to.

Tests used:
[1] = molecular target: T1, IncC2 (259 aa), short ParA protein made from the second translational start of incC of plasmid RK2 (plasmid RK2 (IncP-1)) (UniProt P07673); experiment: cross-linking; glutaraldehyde cross-linking of mixed IncC1 and IncC2 with ADP, Western blot, data not shown; both purified
T1 sequence: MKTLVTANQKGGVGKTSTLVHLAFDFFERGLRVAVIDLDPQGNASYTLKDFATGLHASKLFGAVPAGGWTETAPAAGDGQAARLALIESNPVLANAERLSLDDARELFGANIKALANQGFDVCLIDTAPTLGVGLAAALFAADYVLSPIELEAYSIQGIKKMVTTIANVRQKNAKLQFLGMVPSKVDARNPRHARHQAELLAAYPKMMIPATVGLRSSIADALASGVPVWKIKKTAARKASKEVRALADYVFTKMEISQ

[2] = molecular target: IncC1 (364 aa), long ParA protein encoded by incC of broad-host-range plasmid RK2 (plasmid RK2 (IncP-1)) (UniProt P07673); experiment: AUC; velocity sedimentation, 30 μM IncC1 without ATP; precipitated protein cleared beforehand; 50 mM sodium phosphate pH 8.0, 100 mM NaCl, 40,000 rpm, 4 °C; both purified
[3] = molecular target: T1, IncC2 (259 aa), short ParA protein made from the second translational start of incC of plasmid RK2 (plasmid RK2 (IncP-1)); experiment: cross-linking; glutaraldehyde 0-0.1%, with 2 mM ATP; 5 μg of each protein in 50 μl, 10 mM MgCl2, 25 mM phosphate buffer pH 7.5; 30 min 37 °C, then 30 min 30 °C with glutaraldehyde; SDS-PAGE, Western blot with anti-IncC; both purified
[4] = molecular target: T1, IncC2 (259 aa), short ParA protein made from the second translational start of incC of plasmid RK2 (plasmid RK2 (IncP-1)); experiment: cross-linking; glutaraldehyde 0-0.1%, no nucleotide; 5 μg of each protein in 50 μl, 10 mM MgCl2, 25 mM phosphate buffer pH 7.5; 30 min 37 °C, then 30 min 30 °C with glutaraldehyde; SDS-PAGE, Western blot with anti-IncC; both purified
[5] = molecular target: IncC1-NΔ23 (23 aa removed from the N-terminus of IncC1) (plasmid RK2 (IncP-1)) (UniProt P07673); experiment: AUC; velocity sedimentation of IncC1 lacking 23 N-terminal amino acids, data not shown; both purified

binding [1]: binds | binding [3]: binds
B1: IncC1 (364 aa), long ParA protein encoded by incC of broad-host-range plasmid RK2 (natural protein, plasmid RK2 (IncP-1), UniProt P07673 1-364, looked up)
chain: MGVIHEETAYRKPVPGGDPGAGSGAADHRDSAGRLSRWEATGDVRNVAGTDQGRSVASGASRVGRVRGQELARGVRAGNGGSAGTSGVHRPEVGSGRQEKTGNQTMKTLVTANQKGGVGKTSTLVHLAFDFFERGLRVAVIDLDPQGNASYTLKDFATGLHASKLFGAVPAGGWTETAPAAGDGQAARLALIESNPVLANAERLSLDDARELFGANIKALANQGFDVCLIDTAPTLGVGLAAALFAADYVLSPIELEAYSIQGIKKMVTTIANVRQKNAKLQFLGMVPSKVDARNPRHARHQAELLAAYPKMMIPATVGLRSSIADALASGVPVWKIKKTAARKASKEVRALADYVFTKMEISQ
notes: IncC1, the product of the first translational start of incC (parA) of IncP-1 plasmid RK2, 364 aa; also called His6-IncC1; His-IncC1; source: E. coli BL21 (printed: C600 BL21), modified pET28a vector, purified (nickel-agarose)
binding [2]: no binding (condition: in the absence of ATP; 30 μM IncC1)

B2: N-terminal domain of IncC1 (amino acids 1-105) (domain or fragment, plasmid RK2 (IncP-1), UniProt P07673 1-105, looked up)
chain: MGVIHEETAYRKPVPGGDPGAGSGAADHRDSAGRLSRWEATGDVRNVAGTDQGRSVASGASRVGRVRGQELARGVRAGNGGSAGTSGVHRPEVGSGRQEKTGNQT
notes: N-terminal domain of IncC1 of plasmid RK2, amino acids 1-105, 11 kDa; also called NTD; IncC1 NTD; source: E. coli, expressed from pSMB315 (pGBT340 with incC1-NTD), purified
binding [4]: no binding (condition: in the absence of nucleotides)

binding [5]: binds
B3: IncC1-NΔ23 (23 aa removed from the N-terminus of IncC1) (domain or fragment, UniProt P07673 24-364)
chain: GAADHRDSAGRLSRWEATGDVRNVAGTDQGRSVASGASRVGRVRGQELARGVRAGNGGSAGTSGVHRPEVGSGRQEKTGNQTMKTLVTANQKGGVGKTSTLVHLAFDFFERGLRVAVIDLDPQGNASYTLKDFATGLHASKLFGAVPAGGWTETAPAAGDGQAARLALIESNPVLANAERLSLDDARELFGANIKALANQGFDVCLIDTAPTLGVGLAAALFAADYVLSPIELEAYSIQGIKKMVTTIANVRQKNAKLQFLGMVPSKVDARNPRHARHQAELLAAYPKMMIPATVGLRSSIADALASGVPVWKIKKTAARKASKEVRALADYVFTKMEISQ
